This experiment concerns the target T1, RIM1 (mouse (endogenous in cerebellar synaptosomes)) (UniProt Q99NE5).
T1 sequence: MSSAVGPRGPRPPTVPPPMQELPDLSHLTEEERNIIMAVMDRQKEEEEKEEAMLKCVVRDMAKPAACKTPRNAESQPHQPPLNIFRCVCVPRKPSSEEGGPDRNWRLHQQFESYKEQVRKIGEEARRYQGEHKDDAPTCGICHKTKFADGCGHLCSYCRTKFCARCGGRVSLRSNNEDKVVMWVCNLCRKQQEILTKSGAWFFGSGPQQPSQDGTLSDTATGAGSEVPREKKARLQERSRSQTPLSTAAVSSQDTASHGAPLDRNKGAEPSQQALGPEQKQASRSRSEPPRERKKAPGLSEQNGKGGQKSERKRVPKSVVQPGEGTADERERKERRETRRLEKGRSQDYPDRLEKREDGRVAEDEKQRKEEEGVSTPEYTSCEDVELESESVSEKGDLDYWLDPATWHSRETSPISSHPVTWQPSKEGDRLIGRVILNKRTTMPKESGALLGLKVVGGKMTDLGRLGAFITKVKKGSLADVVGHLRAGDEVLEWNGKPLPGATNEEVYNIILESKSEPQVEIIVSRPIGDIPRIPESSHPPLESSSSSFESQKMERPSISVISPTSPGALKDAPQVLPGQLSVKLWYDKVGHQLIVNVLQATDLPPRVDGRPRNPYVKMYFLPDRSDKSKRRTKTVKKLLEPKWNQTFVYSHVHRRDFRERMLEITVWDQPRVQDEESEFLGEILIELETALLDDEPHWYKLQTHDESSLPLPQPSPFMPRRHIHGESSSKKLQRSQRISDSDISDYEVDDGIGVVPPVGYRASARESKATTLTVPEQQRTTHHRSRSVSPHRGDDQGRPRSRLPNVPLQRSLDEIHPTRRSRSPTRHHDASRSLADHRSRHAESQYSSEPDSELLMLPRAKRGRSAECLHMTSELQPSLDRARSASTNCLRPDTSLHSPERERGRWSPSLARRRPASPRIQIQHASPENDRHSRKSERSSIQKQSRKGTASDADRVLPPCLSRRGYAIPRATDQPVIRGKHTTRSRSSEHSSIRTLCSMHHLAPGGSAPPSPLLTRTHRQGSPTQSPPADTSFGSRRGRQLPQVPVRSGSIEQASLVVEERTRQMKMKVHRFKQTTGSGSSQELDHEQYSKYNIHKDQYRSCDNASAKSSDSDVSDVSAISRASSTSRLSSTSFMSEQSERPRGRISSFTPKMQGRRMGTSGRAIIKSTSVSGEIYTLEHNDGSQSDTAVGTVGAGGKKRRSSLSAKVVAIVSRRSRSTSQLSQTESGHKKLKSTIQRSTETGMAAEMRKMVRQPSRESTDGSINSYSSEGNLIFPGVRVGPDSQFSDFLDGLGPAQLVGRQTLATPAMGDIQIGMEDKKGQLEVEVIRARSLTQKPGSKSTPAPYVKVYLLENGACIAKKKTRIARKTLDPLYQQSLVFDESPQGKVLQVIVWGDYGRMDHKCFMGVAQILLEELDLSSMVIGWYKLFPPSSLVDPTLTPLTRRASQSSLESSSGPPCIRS
As to the kind of experiment: co-IP; lysate of mouse cerebellar synaptosomes (P21) incubated with anti-RIM1 antibody precoupled to GammaBind Plus Sepharose, western blot; rabbit IgG as negative control; also done with synaptosomes of Rapgef3/4-dKO and Prkce-cKO mice and after 8-pCPT (20 μM, 30 min), 8-pCPT + εV1-2 (5 µM, 30 min) or FR236924 (200 nM, 30 min).

The values below come from publication PMC10171863.

No constants are given. Whether binding was seen depends on the method and setting. Binding seen in cells or lysates may run through a third protein. Some binding calls cover weakened binding; strength is not graded here.

B1: Rab3A (protein, UniProt P63011 1-220)
chain: MASATDSRYGQKESSDQNFDYMFKILIIGNSSVGKTSFLFRYADDSFTPAFVSTVGIDFKVKTIYRNDKRIKLQIWDTAGQERYRTITTAYYRGAMGFILMYDITNEESFNAVQDWSTQIKTYSWDNAQVLLVGNKCDMEDERVVSSERGRQLADHLGFEFFEASAKDNINVKQTFERLVDVICEKMSESLDTADPAVTGAKQGPQLTDQQAPPHQDCAC
Consider B1, for which the binding result was “binds”.
